The source of these data is article PMC10760242.

Protein sequences, listed by entry. Tags and fused reporters are not part of them. Lines headed by an entry give the natural chain unless they say otherwise; changes in a name come on top.
UniProt P13647: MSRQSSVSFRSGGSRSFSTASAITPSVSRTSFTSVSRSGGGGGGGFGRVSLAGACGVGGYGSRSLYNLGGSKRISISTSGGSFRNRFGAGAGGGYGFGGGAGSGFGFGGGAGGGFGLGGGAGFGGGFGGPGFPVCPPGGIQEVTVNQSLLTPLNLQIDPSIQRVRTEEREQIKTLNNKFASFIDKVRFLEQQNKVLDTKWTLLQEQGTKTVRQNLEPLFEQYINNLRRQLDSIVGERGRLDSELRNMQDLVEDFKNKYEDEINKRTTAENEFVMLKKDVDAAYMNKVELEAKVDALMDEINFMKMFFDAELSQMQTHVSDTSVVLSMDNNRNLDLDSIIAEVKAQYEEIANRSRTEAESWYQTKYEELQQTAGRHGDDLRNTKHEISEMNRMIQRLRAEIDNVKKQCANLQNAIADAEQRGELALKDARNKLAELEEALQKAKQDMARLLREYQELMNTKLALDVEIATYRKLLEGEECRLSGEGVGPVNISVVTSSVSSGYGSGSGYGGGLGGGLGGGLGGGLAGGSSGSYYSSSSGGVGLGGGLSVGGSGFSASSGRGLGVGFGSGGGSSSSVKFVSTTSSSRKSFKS
UniProt P02538: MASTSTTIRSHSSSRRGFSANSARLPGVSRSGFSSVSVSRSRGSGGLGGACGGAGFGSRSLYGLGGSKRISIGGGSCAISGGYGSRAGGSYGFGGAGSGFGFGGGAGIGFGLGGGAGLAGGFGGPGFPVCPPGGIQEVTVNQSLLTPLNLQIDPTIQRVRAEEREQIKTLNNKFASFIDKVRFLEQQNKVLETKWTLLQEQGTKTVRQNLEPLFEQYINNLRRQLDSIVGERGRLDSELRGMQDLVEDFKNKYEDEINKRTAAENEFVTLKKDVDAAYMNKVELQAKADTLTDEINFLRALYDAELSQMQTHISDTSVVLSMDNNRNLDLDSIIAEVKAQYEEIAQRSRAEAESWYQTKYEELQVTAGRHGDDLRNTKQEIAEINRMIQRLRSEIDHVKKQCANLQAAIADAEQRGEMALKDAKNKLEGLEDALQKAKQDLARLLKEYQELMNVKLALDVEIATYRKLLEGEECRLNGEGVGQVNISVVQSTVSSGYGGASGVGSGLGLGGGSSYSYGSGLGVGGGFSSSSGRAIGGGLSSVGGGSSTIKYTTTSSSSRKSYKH

Results are given in words; binding and its absence hold for the method and conditions named. In cells and extracts the contact can be indirect. These calls come from enrichment with a bait or labelling near it, and not all partners need be listed.

In this test the target is T1, Tripartite Motif-containing protein 29 (TRIM29) (human (endogenous in UM-UC5, UM-UC9, UM-UC14)) (UniProt Q14134).
T1 sequence: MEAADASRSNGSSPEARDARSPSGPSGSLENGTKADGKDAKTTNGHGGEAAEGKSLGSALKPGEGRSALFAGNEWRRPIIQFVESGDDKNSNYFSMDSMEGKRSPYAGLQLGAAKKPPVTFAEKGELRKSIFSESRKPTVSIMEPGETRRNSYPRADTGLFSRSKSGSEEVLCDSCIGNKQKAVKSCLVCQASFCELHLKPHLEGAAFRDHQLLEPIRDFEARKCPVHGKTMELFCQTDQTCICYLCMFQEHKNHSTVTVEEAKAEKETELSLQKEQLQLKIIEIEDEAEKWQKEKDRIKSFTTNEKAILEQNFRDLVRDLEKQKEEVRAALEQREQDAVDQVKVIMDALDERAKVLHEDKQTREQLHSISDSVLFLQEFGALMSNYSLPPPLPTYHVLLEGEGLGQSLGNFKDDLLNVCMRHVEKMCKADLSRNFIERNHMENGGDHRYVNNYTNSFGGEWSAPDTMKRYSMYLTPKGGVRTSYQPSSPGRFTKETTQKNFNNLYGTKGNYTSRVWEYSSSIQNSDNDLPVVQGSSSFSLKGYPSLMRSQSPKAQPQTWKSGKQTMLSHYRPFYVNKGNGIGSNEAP
Briefly: affinity purification with mass spectrometry; IP of endogenous TRIM29 with TRIM29 antibody (B-2) on magnetic beads from UM-UC5 and UM-UC9 lysates, overnight at 4°C; lysis buffer 25 mM Tris-HCl pH 7.4, 150 mM NaCl, 1 mM EDTA, 5% glycerol; LC/MS of the beads; TRIM29-KO cells as negative control.

On to K5 (from UniProt P13647 1-590), for which the binding result is recorded as “binds”.

Take K6A (from UniProt P02538 1-564): the binding entry is reported as “binds”.

B1: K9 (protein, UniProt P35527 1-623)
chain: MSCRQFSSSYLSRSGGGGGGGLGSGGSIRSSYSRFSSSGGGGGGGRFSSSSGYGGGSSRVCGRGGGGSFGYSYGGGSGGGFSASSLGGGFGGGSRGFGGASGGGYSSSGGFGGGFGGGSGGGFGGGYGSGFGGFGGFGGGAGGGDGGILTANEKSTMQELNSRLASYLDKVQALEEANNDLENKIQDWYDKKGPAAIQKNYSPYYNTIDDLKDQIVDLTVGNNKTLLDIDNTRMTLDDFRIKFEMEQNLRQGVDADINGLRQVLDNLTMEKSDLEMQYETLQEELMALKKNHKEEMSQLTGQNSGDVNVEINVAPGKDLTKTLNDMRQEYEQLIAKNRKDIENQYETQITQIEHEVSSSGQEVQSSAKEVTQLRHGVQELEIELQSQLSKKAALEKSLEDTKNRYCGQLQMIQEQISNLEAQITDVRQEIECQNQEYSLLLSIKMRLEKEIETYHNLLEGGQEDFESSGAGKIGLGGRGGSGGSYGRGSRGGSGGSYGGGGSGGGYGGGSGSRGGSGGSYGGGSGSGGGSGGGYGGGSGGGHSGGSGGGHSGGSGGNYGGGSGSGGGSGGGYGGGSGSRGGSGGSHGGGSGFGGESGGSYGGGEEASGSGGGYGGGSGKSSHS
As to B1, the binding result is “binds”.

B2: K18 (protein, UniProt P05783 1-430)
chain: MSFTTRSTFSTNYRSLGSVQAPSYGARPVSSAASVYAGAGGSGSRISVSRSTSFRGGMGSGGLATGIAGGLAGMGGIQNEKETMQSLNDRLASYLDRVRSLETENRRLESKIREHLEKKGPQVRDWSHYFKIIEDLRAQIFANTVDNARIVLQIDNARLAADDFRVKYETELAMRQSVENDIHGLRKVIDDTNITRLQLETEIEALKEELLFMKKNHEEEVKGLQAQIASSGLTVEVDAPKSQDLAKIMADIRAQYDELARKNREELDKYWSQQIEESTTVVTTQSAEVGAAETTLTELRRTVQSLEIDLDSMRNLKASLENSLREVEARYALQMEQLNGILLHLESELAQTRAEGQRQAQEYEALLNIKVKLEAEIATYRRLLEDGEDFNLGDALDSSNSMQTIQKTTTRRIVDGKVVSETNDTKVLRH
For B2, the binding entry is given as “binds”.
